Among all 360,000 compounds or so, about 780 (0.22%) were called active. Inconclusive results, whose numbers are uncertain, are shown with a selection of clear calls. Rule as the data show it: active = inhibition above about 35% (passing the limit was not always enough); inconclusive = no clear call, values can overlap the other calls.
System: Botulinum neurotoxin type F light chain protease (Clostridium botulinum)
Experiment: BoNT/F light chain protease inhibitors, primary screen, biochemical, flow cytometry, MLPCN library (AID 588497); also: plate controls were buffer without enzyme for full effect and enzyme alone for no effect
Conditions: Multiplex microsphere protease cleavage assay, at 10 µM, active compounds read high

| Structure (SMILES) | inhibition |
| --- | --- |
| Clc1ccc(-c2nc(N3CCOCC3)nc3ccccc23)cc1 | inconclusive: -22.7% |
| Cc1[nH]nc2c1C1(CCOCC1)C(C#N)=C(N)O2 | inactive: -6% |
| CN(C)c1ccc(C2NC(=O)c3ccccc3N2)cc1 (stereo not drawn) | inconclusive: -35.2% |
| Cn1c2ccccc2c2n[nH]c(=S)nc21 | inconclusive: 10.1% |
| Cc1cc(C)c(S(=O)(=O)N2CCCCC2CCNC(=O)C(=O)NCCN2CCOCC2)c(C)c1 (stereo not drawn) | inconclusive: -8.2% |
| Cc1ccc(NCC(=O)N/N=C\C(Br)=C\c2ccccc2)cc1 | inactive: -6.8% |
| Cc1cccc(NC(=O)CN2C(=O)NC(C)(c3ccc4ccccc4c3)C2=O)n1 (stereo not drawn) | inconclusive: -120% |
| Cc1sc(-c2ccccn2)nc1OC(=O)c1cccc(Cl)c1Cl | inconclusive: 41.9% |
| Fc1ccc(C(CCNCc2cccs2)c2ccco2)cc1 (stereo not drawn) | inconclusive: -9.3% |
| Cc1cc(Br)c2c(c1)C1(OCCO1)C(=O)N2 | inconclusive: 6.2% |
| CCCC(C)C(=O)Nc1nnc(CCc2ccccc2)s1 (stereo not drawn) | inconclusive: 9.5% |
| COC(=O)c1cn(C(=O)c2cccc3ccccc23)c2ccccc12 | inconclusive: 14.3% |
| Cc1nnc(SCC(=O)Nc2sccc2C(N)=O)n1Cc1ccccc1 | active: 35.8% |
| Cc1ccccc1Oc1cccc(C(=O)/C(C#N)=C/N(C)C)c1 | inactive: 1.1% |
| O=C1/C(=C\c2cccs2)N=C(c2cccs2)N1Nc1ccccc1 | active: 39.9% |
| C/C(=N\NC(=O)c1ccc2c(c1)OCO2)c1ccc(NS(C)(=O)=O)cc1 | inconclusive: -4.6% |
| Cc1ccc2nc(-c3ccc(Br)cc3)cn2c1 | inconclusive: -28.1% |
| Cc1cc(N2C(=O)CCC2=O)ccc1NC(=O)c1cccs1 | inconclusive: -14.6% |
| COc1cccc(NC(=O)N(CCCN2CCOCC2)C(C)c2cc3cccc(OC)c3o2)c1 (stereo not drawn) | inactive: -1.1% |
| C=CC[C@@H](Cc1ccc(F)cc1)C(=O)OC[C@H]1CCCN1C(=O)[C@@H](CC=C)CC(=O)N(CCO)Cc1ccccc1 | inactive: -0.2% |

Given bar-delimited: two of the compounds above.
Structure (SMILES) | inhibition
Cc1ccc2nc(-c3ccc(Br)cc3)cn2c1 | inconclusive: -28.1%
Cc1cc(N2C(=O)CCC2=O)ccc1NC(=O)c1cccs1 | inconclusive: -14.6%

Continuation.

| Structure (SMILES) | inhibition |
| --- | --- |
| CCNC(=O)c1cnn(-c2ccccc2)c1-c1ccccc1 | inconclusive: -12.2% |
| NC(=O)c1ncc(C(F)(F)F)cc1Oc1cccc(C(F)(F)F)c1 | inconclusive: -21.4% |
| CCN1C=C(C(=O)OC)C(c2cccc(OC)c2OC)C(C(=O)OC)=C1 | inactive: -5.8% |
| COc1cccc(N2CCN(CC(=O)NC(C)c3ccccc3)CC2)c1 (stereo not drawn) | inconclusive: 27.6% |
| O=C(Nc1ccc2c(c1)OCCO2)c1cc2sccc2n1Cc1ccc(F)cc1 | inconclusive: -34.4% |
| CCN(CC)C(=O)C1CCCN(Cc2ccc(N(C)C)cc2)C1 (stereo not drawn) | inconclusive: 1.5% |
| CCOC(=O)c1[nH]c2ccc(OC)cc2c1NC(=O)CCN1CCN(Cc2ccccc2)CC1 | inconclusive: -20.5% |
| CN(C)CCCNC(=O)c1ccccn1 | inactive: -4.3% |
| CCCn1cc(CN2CCC(n3nccc3NC(=O)C(OC)c3ccccc3)CC2)c(C)n1 (stereo not drawn) | inactive: -2.2% |
| O=C(Nc1ccc2c(c1)OCCO2)c1ccc(Cl)cc1Cl | inconclusive: 11.1% |
| CC(=O)c1cccc(NC(=O)CN(C)S(=O)(=O)c2ccc3c(c2)CC(C)N3C(C)=O)c1 (stereo not drawn) | inactive: -0.6% |
| CCNC(=S)N(CCCN(CC)CC)Cc1cc2cc3c(cc2[nH]c1=O)OCO3 | inconclusive: -17.3% |
| CC/C(=C/c1ccccc1)c1cccc2[nH]c3c(OC)cccc3c12 | inactive: -7% |
| Cc1cc(C)cc(NC(=O)c2ccc(CN3CCc4ccccc4C3)cc2)c1 | inconclusive: 11.7% |
| C(=N\c1nc2ccccc2[nH]1)/c1cccs1 | inactive: -2.4% |
| O=C(Nc1cc(Cl)cc(Cl)c1)c1cnn2cccnc12 | inactive: -3.3% |
| O=C(CC1OCC2CCCN2C1=O)Nc1ccc([N+](=O)[O-])cc1 (stereo not drawn) | inactive: -8.8% |
| Cc1ccc(S(=O)(=O)Oc2ccccc2/C=C2/SC(=O)NC2=O)cc1 | inconclusive: 46.5% |
| Cc1ccc[n+](CC(=O)c2ccc(Br)cc2)c1C | inconclusive: 25% |
| CCn1c(SCc2ccccc2)nnc1C1CCN(S(=O)(=O)c2ccc(OC)cc2)CC1 | active: 34.7% |

| Structure (SMILES) | inhibition |
| --- | --- |
| CN(Cc1cccc(Cl)c1Cl)c1ccc(S(=O)(=O)N2CCCCC2)cc1[N+](=O)[O-] | inactive: -4.5% |
| CCSC(C)CC1CC(=O)CC(=O)C1 (stereo not drawn) | inconclusive: 19.2% |
| COc1ccc(/C(O)=C/c2nc3ccccc3n(-c3ccccc3)c2=O)cc1 | active: 37.2% |
| COc1cc(/C=C2\SC(=Nc3ccc(Cl)c(C(=O)O)c3)NC2=O)c(Br)c(Br)c1O | inconclusive: -0.2% |
| CN(C)c1ccc(CNC(=O)C2(C)Cc3c(-c4cccc(C(N)=O)c4)ccnc3O2)cc1 (stereo not drawn) | inactive: -4.5% |
| Cc1nc(N2CCOCC2)nc(Oc2ccccc2)c1[N+](=O)[O-] | inconclusive: 18.4% |
| COc1ccccc1OCc1ccc(C(=O)c2ccccc2)cc1 | inconclusive: 9% |
| COc1ccc(/C(N)=N/OC(=O)c2cccs2)cc1 | inconclusive: -59% |
| CCN(CC(=O)NC(C)(C)C)C(=O)CN1c2cccc3cccc(c23)S1(=O)=O | inconclusive: -11.6% |
| Cc1ccccc1C(=O)N1CCC(C(=O)Nc2ccccc2N2CCCC2)CC1 | inactive: -3.2% |
| CCN(C(C)=O)c1nc(CSc2nnc(NC(C)C)s2)cs1 | inactive: 2.1% |
| C=CCn1c(O)c(N=Nc2ccccc2)c2ccccc21 | inconclusive: -55.7% |
| NC(=O)c1noc(C(=O)N(CC(=O)NC2CCCC2)Cc2ccc3c(c2)OCO3)c1N | inconclusive: -5.5% |
| O=C(O)CCCC(=O)Nc1ccc(-n2ccc(C(F)(F)F)n2)cc1 | inconclusive: -108% |
| Cc1c(N2C(=O)/C(=C\c3ccc(N(C)C)cc3)N(C)C2=S)c(=O)n(-c2ccccc2)n1C | inactive: -1.4% |
| Cc1cc(C)c(C#N)c(SCC(=O)N2CCN(Cc3ccccc3)CC2)n1 | inconclusive: -54.7% |
| N#CCc1ccccc1C(=O)OCC(=O)N(Cc1ccccc1)Cc1ccccc1 | inconclusive: -9% |
| Cc1nnc(-c2ccc(N3CCCCCC3)c([N+](=O)[O-])c2)o1 | inconclusive: -5% |

Source: PubChem BioAssay AID588497 (NMMLSC, 2011)
